Laboratory results published in the supplement of paper PMC11732987, “Enantioselective OTUD7B fragment discovery through chemoproteomics screening and high-throughput optimisation” (Communications Chemistry, 2025).
The list shows a part of the results. The data scatter; read single values as rough.

Protein sequences, listed by entry. Tags and fused reporters are not part of them. Lines headed by an entry give the natural chain unless they say otherwise; changes in a name come on top. Residues count along the entry.
UniProt Q8IYQ7: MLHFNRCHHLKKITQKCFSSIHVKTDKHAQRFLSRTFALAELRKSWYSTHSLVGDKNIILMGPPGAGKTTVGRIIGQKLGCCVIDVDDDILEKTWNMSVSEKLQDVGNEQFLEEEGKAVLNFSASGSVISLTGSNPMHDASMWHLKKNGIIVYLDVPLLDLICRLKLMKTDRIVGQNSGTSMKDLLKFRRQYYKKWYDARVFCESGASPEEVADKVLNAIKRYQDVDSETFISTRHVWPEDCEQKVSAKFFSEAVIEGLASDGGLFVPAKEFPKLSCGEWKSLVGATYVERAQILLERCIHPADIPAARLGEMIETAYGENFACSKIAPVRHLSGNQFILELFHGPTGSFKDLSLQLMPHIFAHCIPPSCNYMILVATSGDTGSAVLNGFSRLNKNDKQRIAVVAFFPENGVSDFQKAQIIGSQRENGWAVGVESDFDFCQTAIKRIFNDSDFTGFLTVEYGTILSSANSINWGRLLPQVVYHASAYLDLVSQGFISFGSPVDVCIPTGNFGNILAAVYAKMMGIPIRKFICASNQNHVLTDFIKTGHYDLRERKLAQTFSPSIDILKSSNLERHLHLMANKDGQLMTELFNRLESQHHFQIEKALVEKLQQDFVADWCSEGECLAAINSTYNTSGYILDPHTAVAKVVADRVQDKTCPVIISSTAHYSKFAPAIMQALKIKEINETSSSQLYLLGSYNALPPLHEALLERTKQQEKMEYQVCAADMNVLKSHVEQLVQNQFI
UniProt Q96FV9: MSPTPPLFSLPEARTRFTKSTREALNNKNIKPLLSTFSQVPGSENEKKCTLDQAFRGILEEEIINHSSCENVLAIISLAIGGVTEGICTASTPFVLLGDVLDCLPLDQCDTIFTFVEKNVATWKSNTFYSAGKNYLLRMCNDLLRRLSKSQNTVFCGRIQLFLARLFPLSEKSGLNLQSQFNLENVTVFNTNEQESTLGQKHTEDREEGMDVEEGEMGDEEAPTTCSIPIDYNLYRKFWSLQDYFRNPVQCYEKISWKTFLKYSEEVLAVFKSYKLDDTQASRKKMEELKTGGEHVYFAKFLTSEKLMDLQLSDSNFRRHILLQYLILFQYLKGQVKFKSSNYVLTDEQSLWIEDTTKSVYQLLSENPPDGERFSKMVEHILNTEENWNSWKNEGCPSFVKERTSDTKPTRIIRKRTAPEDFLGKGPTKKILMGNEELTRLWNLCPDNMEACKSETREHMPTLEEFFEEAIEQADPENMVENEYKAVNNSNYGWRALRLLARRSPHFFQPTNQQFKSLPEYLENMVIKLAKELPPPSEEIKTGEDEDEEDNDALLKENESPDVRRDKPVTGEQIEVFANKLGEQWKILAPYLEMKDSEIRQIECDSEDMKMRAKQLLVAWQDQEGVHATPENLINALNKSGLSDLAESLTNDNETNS
UniProt Q9UGI8: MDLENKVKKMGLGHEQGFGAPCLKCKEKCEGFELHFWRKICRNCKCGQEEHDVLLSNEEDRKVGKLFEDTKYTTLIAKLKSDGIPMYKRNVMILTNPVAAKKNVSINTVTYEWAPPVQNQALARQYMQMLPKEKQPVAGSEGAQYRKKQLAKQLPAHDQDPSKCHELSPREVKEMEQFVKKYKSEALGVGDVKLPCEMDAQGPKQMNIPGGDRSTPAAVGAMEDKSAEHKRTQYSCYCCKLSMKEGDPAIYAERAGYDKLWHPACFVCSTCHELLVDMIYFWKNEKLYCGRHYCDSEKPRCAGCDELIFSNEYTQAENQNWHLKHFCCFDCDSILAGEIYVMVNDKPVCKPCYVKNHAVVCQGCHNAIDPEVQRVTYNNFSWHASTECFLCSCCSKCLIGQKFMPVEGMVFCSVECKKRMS
UniProt O95359, 2566-2590: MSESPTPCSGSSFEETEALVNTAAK
UniProt O95359, 2201-2222: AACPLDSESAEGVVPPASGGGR
UniProt O60343: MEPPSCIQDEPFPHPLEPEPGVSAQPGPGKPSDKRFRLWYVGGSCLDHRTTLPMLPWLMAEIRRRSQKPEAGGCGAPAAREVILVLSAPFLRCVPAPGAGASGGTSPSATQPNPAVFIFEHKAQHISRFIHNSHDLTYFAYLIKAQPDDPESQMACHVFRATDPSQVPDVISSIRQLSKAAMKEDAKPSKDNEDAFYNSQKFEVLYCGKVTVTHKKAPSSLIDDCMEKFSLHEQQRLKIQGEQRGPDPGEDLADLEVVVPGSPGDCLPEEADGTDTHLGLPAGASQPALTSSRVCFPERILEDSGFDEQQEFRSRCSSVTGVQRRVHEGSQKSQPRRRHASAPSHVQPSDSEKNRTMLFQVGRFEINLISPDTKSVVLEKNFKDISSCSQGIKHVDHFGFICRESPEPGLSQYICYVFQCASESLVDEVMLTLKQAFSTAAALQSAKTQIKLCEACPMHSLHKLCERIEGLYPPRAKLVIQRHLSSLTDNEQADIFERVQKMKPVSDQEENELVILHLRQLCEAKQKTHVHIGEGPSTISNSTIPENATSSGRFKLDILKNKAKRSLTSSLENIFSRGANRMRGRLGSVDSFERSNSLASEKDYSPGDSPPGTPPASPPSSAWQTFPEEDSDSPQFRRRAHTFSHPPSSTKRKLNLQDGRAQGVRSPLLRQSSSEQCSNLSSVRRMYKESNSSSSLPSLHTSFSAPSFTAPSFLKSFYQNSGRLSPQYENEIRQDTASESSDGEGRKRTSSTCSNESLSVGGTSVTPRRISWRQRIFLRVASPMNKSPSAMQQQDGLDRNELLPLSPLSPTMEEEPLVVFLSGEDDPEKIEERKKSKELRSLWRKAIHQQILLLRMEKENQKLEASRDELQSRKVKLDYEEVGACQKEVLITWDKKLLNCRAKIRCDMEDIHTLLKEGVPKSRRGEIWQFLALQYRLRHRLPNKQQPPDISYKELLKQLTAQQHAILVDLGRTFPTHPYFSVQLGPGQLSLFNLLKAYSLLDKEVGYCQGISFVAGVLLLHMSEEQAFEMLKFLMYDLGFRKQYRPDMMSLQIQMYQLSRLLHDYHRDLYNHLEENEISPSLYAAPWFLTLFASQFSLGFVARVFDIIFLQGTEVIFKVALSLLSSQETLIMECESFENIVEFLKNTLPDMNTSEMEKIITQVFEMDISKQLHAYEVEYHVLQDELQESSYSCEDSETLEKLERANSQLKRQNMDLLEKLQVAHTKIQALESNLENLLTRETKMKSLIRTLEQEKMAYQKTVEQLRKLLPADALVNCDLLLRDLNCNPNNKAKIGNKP
UniProt O75410, 113-133: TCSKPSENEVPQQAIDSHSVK
UniProt Q9UK61: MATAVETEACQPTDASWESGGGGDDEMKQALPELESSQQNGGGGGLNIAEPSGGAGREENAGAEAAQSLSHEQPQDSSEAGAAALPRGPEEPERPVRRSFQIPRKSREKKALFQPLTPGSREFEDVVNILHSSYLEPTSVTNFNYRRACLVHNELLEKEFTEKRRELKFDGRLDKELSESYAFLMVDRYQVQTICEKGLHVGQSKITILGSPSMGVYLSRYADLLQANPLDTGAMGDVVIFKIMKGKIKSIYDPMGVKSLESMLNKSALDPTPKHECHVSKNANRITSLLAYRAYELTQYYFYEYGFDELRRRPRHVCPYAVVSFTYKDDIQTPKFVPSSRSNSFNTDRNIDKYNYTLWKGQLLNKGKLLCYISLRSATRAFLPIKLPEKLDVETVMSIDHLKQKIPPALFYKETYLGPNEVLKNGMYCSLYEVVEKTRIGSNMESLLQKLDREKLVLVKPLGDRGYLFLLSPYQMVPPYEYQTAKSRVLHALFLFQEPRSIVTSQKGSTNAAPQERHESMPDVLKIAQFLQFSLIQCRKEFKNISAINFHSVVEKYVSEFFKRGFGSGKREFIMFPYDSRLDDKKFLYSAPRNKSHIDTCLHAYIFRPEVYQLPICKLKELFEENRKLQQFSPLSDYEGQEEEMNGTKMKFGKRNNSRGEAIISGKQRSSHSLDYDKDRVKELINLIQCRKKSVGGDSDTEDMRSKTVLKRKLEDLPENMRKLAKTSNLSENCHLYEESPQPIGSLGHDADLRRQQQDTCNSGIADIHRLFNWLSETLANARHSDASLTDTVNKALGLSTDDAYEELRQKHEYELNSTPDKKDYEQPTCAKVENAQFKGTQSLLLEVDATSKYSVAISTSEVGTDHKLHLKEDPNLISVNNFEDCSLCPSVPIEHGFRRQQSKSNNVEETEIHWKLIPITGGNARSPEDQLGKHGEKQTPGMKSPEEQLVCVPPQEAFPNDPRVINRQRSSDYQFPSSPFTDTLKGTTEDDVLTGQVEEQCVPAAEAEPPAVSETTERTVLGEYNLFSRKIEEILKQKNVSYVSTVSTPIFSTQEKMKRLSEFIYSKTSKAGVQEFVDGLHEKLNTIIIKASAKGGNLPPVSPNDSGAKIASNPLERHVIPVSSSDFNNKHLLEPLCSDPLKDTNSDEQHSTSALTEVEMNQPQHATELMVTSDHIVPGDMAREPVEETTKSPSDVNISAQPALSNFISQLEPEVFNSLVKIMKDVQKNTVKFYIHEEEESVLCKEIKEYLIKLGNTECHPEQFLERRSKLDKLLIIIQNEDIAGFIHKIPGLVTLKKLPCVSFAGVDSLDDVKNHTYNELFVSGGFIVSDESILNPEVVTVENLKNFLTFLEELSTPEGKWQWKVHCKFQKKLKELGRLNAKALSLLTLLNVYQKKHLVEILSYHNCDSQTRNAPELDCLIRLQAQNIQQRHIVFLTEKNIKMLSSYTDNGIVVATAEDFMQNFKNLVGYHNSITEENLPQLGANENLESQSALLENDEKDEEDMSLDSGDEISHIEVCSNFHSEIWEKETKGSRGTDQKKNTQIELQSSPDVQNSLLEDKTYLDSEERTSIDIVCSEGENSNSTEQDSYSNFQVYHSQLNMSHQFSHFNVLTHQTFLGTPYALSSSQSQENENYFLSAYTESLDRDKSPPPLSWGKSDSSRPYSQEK
UniProt Q9C0B7, 427-452: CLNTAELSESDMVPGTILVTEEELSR
UniProt Q6I9Y2: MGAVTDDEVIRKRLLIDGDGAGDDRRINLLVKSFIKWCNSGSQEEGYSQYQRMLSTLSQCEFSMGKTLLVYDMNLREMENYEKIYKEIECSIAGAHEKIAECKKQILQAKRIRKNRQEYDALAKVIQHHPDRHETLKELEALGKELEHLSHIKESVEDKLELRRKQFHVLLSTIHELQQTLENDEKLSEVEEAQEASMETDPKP
UniProt Q86TI0: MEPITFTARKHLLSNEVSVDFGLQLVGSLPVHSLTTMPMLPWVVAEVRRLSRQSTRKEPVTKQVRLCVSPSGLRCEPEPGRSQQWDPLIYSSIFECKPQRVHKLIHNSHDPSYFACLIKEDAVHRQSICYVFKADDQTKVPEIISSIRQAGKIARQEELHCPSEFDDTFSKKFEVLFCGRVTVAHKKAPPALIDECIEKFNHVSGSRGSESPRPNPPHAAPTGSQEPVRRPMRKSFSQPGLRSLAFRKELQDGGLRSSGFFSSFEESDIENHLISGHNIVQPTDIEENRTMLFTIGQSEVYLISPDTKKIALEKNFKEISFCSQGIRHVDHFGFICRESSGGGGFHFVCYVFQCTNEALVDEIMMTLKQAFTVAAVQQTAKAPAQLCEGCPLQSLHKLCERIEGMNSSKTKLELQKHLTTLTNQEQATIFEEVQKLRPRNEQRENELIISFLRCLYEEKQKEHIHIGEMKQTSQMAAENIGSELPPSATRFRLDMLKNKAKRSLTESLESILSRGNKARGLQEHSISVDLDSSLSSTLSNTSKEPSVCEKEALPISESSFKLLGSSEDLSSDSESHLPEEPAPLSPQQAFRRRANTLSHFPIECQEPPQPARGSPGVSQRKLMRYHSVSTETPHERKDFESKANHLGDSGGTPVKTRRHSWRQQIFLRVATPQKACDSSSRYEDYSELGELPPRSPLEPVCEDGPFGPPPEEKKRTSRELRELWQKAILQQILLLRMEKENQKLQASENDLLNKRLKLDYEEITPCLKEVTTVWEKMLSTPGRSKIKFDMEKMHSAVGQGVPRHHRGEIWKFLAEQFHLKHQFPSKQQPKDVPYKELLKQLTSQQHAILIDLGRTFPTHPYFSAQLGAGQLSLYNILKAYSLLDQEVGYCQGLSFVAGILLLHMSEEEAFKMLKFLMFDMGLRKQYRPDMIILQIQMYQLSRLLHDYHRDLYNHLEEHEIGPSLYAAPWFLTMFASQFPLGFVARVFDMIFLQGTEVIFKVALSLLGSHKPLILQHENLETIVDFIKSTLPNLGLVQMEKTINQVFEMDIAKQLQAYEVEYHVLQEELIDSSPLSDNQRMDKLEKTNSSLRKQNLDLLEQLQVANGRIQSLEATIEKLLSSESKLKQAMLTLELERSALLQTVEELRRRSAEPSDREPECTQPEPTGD
UniProt Q5VWN6, 605-629: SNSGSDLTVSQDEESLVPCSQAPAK
UniProt Q15560: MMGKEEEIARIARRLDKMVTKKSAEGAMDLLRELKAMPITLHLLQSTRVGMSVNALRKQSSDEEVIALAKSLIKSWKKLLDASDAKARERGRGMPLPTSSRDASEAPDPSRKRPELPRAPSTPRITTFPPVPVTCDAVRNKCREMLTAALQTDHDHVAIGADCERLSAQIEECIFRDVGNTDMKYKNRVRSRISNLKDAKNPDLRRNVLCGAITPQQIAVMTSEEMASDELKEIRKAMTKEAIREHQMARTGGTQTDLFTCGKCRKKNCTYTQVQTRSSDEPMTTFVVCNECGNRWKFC

These targets were tested with ClCC(=O)N[C@H]1CCCc2ccccc12 (assay: log2 mean competition ratio of IA-DTB cysteine labelling (DMSO/compound) (log2 ratio); higher = stronger cysteine engagement by compound). Details: 50 µM; treatment time: 4 h; cell line lysate: HEK293T.
Description: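 IA-DTB competitive cysteine chemoproteomics in HEK293T RIPA lysate. Lysates were treated with compound 29 or 30 at 50 or 200 µM for 4 h, then IA-DTB (500 µM, 1 h), trypsin-digested, NeutrAvidin-enriched and analysed by diaPASEF. Competition ratio = intensity DMSO / intensity compound (n=4 treated, n=64 DMSO); binding: mean log2 CR ≥ 1 and p ≤ 0.05 plus QC filters. Target is the cysteine site.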
For TFIP11 C445 (UniProt Q9UBB9), the “log2 mean competition ratio” value was -0.0953.
With TAF2 C767 (UniProt Q6P1X5) the “log2 mean competition ratio” value was 0.0744.
TACC3 C20 was tested, and the “log2 mean competition ratio” value was 0.286.
THNSL1 C299 (UniProt Q8IYQ7) was tested, and the “log2 mean competition ratio” value was -0.626.
For THADA C683 (UniProt Q6YHU6), the “log2 mean competition ratio” value was 0.231.
THNSL1 C324 (UniProt Q8IYQ7) was tested, and the “log2 mean competition ratio” value was 0.0675.
For TBP C262 (UniProt P20226), the “log2 mean competition ratio” value was -0.0773.
With THOC1 C251 (UniProt Q96FV9) the “log2 mean competition ratio” value was 0.0206.
TES C46 (UniProt Q9UGI8) was tested, and the “log2 mean competition ratio” value was -0.484.
TACC2 C2573 (UniProt O95359) was tested, and the “log2 mean competition ratio” value was 0.51.
In the case of TACC2 C2203 (UniProt O95359), the “log2 mean competition ratio” value is reported as 0.855.
In the case of TBC1D4 C906 (UniProt O60343), the “log2 mean competition ratio” value is reported as -0.281.
For TACC1 C114 (UniProt O75410), the “log2 mean competition ratio” value was 0.538.
TAF5L C188 (UniProt O75529) was tested, and the “log2 mean competition ratio” value was 0.113.
For TASOR C761 (UniProt Q9UK61), the “log2 mean competition ratio” value was -0.505.
In the case of SZT2 C1152 (UniProt Q5T011), the “log2 mean competition ratio” value is reported as -0.314.
With TGFBRAP1 C582 (UniProt Q8WUH2) the “log2 mean competition ratio” value was -0.2.
For TGDS C5 (UniProt O95455), the “log2 mean competition ratio” value was 0.418.
In the case of TACC1 C467 (UniProt O75410), the “log2 mean competition ratio” value is reported as 0.199.
For TANGO6 C427 (UniProt Q9C0B7), the “log2 mean competition ratio” value was -0.0156.
In the case of THOC7 C90 (UniProt Q6I9Y2), the “log2 mean competition ratio” value is reported as -0.279.
TBC1D4 C316 (UniProt O60343) was tested, and the “log2 mean competition ratio” value was 0.0718.
In the case of TANK C318 (UniProt Q92844), the “log2 mean competition ratio” value is reported as 0.139.
For TCP1 C236 (UniProt P17987), the “log2 mean competition ratio” value was 0.0075.
For TBC1D1 C766 (UniProt Q86TI0), the “log2 mean competition ratio” value was -0.466.
For TBC1D1 C67 (UniProt Q86TI0), the “log2 mean competition ratio” value was -0.396.
For TARDBP C50, the “log2 mean competition ratio” value was 0.0666.
In the case of THOC1 C396 (UniProt Q96FV9), the “log2 mean competition ratio” value is reported as 0.206.
TFAM C246 (UniProt Q00059) was tested, and the “log2 mean competition ratio” value was -0.139.
TES C22 (UniProt Q9UGI8) was tested, and the “log2 mean competition ratio” value was -0.413.
With TET2 C332 (UniProt Q6N021) the “log2 mean competition ratio” value was 0.199.
With TASOR2 C623 (UniProt Q5VWN6) the “log2 mean competition ratio” value was 0.103.
For TEDC2 C417 (UniProt Q7L2K0), the “log2 mean competition ratio” value was -0.098.
With TASOR C1260 (UniProt Q9UK61) the “log2 mean competition ratio” value was -0.805.
With TCEA2 C269 (UniProt Q15560) the “log2 mean competition ratio” value was -0.408.
TBX2 C311 was tested, and the “log2 mean competition ratio” value was 0.0831.
TAB2 C608 (UniProt Q9NYJ8) was tested, and the “log2 mean competition ratio” value was -0.195.

Same assay, conditions: 200 µM; treatment time: 4 h; cell line lysate: HEK293T
For TFIP11 C445 (UniProt Q9UBB9), the “log2 mean competition ratio” value was -0.0574.
With TAF2 C767 (UniProt Q6P1X5) the “log2 mean competition ratio” value was -0.546.
For TACC3 C20, the “log2 mean competition ratio” value was 0.178.
For THNSL1 C299 (UniProt Q8IYQ7), the “log2 mean competition ratio” value was -0.713.
With THADA C683 (UniProt Q6YHU6) the “log2 mean competition ratio” value was -0.112.
In the case of THNSL1 C324 (UniProt Q8IYQ7), the “log2 mean competition ratio” value is reported as 0.297.
For TBP C262 (UniProt P20226), the “log2 mean competition ratio” value was 0.000485.
In the case of THOC1 C251 (UniProt Q96FV9), the “log2 mean competition ratio” value is reported as -0.158.
With TES C46 (UniProt Q9UGI8) the “log2 mean competition ratio” value was -0.199.
With TACC2 C2573 (UniProt O95359) the “log2 mean competition ratio” value was -0.098.
TACC2 C2203 (UniProt O95359) was tested, and the “log2 mean competition ratio” value was -0.267.
With TBC1D4 C906 (UniProt O60343) the “log2 mean competition ratio” value was -0.0392.
With TACC1 C114 (UniProt O75410) the “log2 mean competition ratio” value was -0.0692.
With TAF5L C188 (UniProt O75529) the “log2 mean competition ratio” value was 0.612.
For TASOR C761 (UniProt Q9UK61), the “log2 mean competition ratio” value was 0.362.
For SZT2 C1152 (UniProt Q5T011), the “log2 mean competition ratio” value was 0.0214.
For TGFBRAP1 C582 (UniProt Q8WUH2), the “log2 mean competition ratio” value was -0.143.
In the case of TGDS C5 (UniProt O95455), the “log2 mean competition ratio” value is reported as 0.122.
In the case of TACC1 C467 (UniProt O75410), the “log2 mean competition ratio” value is reported as 0.161.
TANGO6 C427 (UniProt Q9C0B7) was tested, and the “log2 mean competition ratio” value was -0.124.
For THOC7 C90 (UniProt Q6I9Y2), the “log2 mean competition ratio” value was -0.393.
With TBC1D4 C316 (UniProt O60343) the “log2 mean competition ratio” value was 0.207.
For TANK C318 (UniProt Q92844), the “log2 mean competition ratio” value was 0.37.
In the case of TCP1 C236 (UniProt P17987), the “log2 mean competition ratio” value is reported as -0.0504.
For TBC1D1 C766 (UniProt Q86TI0), the “log2 mean competition ratio” value was 0.325.
In the case of TBC1D1 C67 (UniProt Q86TI0), the “log2 mean competition ratio” value is reported as 0.407.
With TARDBP C50 the “log2 mean competition ratio” value was 0.139.
In the case of THOC1 C396 (UniProt Q96FV9), the “log2 mean competition ratio” value is reported as -0.154.
In the case of TFAM C246 (UniProt Q00059), the “log2 mean competition ratio” value is reported as 0.187.
In the case of TES C22 (UniProt Q9UGI8), the “log2 mean competition ratio” value is reported as -0.0811.
For TET2 C332 (UniProt Q6N021), the “log2 mean competition ratio” value was 0.0264.
With TASOR2 C623 (UniProt Q5VWN6) the “log2 mean competition ratio” value was 0.0365.
With TEDC2 C417 (UniProt Q7L2K0) the “log2 mean competition ratio” value was 0.257.
For TASOR C1260 (UniProt Q9UK61), the “log2 mean competition ratio” value was -0.0725.
For TCEA2 C269 (UniProt Q15560), the “log2 mean competition ratio” value was 0.239.
In the case of TBX2 C311, the “log2 mean competition ratio” value is reported as 0.0727.
With TAB2 C608 (UniProt Q9NYJ8) the “log2 mean competition ratio” value was 0.196.
